These results are taken from PMC5966253.

The chains behind the UniProt entries cited, without tags or fusion partners.
UniProt P35222: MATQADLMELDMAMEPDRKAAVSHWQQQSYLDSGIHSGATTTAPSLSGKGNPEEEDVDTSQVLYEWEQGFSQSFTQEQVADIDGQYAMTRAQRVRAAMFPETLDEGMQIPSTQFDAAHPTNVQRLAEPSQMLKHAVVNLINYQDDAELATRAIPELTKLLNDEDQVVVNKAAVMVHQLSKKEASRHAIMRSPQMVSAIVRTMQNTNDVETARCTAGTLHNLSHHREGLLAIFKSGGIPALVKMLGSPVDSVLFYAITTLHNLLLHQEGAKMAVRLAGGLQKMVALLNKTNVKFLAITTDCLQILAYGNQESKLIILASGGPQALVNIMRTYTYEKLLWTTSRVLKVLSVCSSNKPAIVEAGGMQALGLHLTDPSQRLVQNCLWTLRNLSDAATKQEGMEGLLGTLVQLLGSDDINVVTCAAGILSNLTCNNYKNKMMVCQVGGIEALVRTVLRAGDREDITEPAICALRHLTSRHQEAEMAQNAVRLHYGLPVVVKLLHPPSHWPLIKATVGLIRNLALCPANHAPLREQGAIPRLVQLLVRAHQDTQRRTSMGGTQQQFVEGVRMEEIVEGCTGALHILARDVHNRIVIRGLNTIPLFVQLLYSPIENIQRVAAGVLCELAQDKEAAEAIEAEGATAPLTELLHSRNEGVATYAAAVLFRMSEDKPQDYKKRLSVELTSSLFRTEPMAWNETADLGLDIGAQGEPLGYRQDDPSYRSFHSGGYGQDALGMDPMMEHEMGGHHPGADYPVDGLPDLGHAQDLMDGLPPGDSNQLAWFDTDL

Read-outs that look alike come from different tables or passages of the source. These are yes or no findings as the source states them, for the method shown. In cells and extracts the contact can be indirect. Some results given as binding are weak or reduced against the parent protein; the word gives no strength.

What all share (assay): co-IP; lysates in NTEN buffer (100 mM NaCl, 20 mM Tris-HCl pH 8.0, 0.5 mM EDTA, 0.5% Nonidet P-40) of parental LNCaP cells (300 μg protein) and of the δ-catenin-overexpressing clone OE1b; incubated 4-16 hours with precipitating antibodies on protein A/G PLUS-agarose beads; IgG as control; SDS-PAGE and Western blot
The target in assay [1] is T1, δ-catenin (endogenous in parental LNCaP cells) (human (endogenous in LNCaP)) (UniProt Q9UQB3).
T1 sequence: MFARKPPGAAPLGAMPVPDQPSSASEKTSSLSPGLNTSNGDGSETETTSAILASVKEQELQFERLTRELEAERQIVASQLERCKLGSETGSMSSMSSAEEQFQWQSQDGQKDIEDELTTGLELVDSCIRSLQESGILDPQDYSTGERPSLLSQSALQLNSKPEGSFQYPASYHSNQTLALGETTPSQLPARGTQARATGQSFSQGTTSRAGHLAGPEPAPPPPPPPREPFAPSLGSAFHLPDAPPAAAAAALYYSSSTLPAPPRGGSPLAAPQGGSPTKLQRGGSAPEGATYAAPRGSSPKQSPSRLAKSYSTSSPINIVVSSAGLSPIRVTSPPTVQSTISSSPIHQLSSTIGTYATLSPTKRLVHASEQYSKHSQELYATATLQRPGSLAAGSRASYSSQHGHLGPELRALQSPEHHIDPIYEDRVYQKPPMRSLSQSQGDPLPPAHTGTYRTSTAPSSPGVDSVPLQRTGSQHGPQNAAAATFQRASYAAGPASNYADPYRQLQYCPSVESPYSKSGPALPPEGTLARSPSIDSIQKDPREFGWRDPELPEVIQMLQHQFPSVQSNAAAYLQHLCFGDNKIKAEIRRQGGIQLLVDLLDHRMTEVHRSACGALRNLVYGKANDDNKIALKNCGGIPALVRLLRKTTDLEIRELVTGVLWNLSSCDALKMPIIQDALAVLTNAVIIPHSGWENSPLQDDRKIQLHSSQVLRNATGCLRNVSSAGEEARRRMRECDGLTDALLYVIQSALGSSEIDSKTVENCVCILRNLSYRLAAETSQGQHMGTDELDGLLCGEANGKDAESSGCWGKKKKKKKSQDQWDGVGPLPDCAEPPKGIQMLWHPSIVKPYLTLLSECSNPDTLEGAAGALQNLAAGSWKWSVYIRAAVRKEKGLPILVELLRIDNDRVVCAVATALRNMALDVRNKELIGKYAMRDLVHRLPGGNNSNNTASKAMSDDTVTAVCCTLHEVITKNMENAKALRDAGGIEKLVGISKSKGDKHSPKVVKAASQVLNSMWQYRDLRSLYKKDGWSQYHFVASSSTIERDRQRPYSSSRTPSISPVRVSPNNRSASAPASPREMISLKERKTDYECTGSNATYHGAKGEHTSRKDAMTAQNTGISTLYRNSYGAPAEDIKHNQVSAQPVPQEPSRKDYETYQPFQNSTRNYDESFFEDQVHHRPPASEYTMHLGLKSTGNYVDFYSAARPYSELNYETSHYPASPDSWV

For assay [2], the target named is T2, p120 (human (endogenous in LNCaP)) (UniProt O60716).
T2 sequence: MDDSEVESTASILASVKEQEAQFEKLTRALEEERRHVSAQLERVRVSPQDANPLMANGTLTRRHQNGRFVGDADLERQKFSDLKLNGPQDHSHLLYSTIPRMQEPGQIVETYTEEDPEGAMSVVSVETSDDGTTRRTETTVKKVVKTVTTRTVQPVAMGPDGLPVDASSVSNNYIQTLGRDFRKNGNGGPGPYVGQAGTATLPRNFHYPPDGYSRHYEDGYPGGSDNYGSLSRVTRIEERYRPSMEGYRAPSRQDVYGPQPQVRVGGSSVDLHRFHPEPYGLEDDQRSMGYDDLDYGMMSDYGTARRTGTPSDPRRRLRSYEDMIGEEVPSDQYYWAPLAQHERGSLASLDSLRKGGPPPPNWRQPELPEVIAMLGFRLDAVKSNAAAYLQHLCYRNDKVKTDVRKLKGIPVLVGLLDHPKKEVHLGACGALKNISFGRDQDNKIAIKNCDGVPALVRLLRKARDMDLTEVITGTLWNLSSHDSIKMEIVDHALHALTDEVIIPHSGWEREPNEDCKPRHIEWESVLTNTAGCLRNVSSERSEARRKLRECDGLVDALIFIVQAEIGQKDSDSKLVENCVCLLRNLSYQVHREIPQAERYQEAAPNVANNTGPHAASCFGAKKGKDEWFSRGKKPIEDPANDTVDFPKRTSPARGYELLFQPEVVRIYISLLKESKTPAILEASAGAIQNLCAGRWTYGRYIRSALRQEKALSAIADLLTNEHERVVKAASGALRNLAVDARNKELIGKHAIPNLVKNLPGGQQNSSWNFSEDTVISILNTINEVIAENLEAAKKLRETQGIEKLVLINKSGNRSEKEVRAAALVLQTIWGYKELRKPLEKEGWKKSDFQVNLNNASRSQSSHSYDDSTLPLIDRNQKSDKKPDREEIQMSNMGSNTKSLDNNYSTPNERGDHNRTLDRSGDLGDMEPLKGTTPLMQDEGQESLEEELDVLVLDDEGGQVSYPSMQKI

Assay [3] concerns the target β-catenin (human (endogenous in LNCaP)) (UniProt P35222).
Assay [4] concerns the target T2, p120 (human (endogenous in LNCaP)). The source holds these as a separate data set.

As for β-catenin (from UniProt P35222 1-781), the binding entry in assay [1] and in assay [2] was “binds” throughout.

B1: δ-catenin (endogenous in parental LNCaP cells) (protein, UniProt Q9UQB3 1-1225)
chain: T1 sequence
For B1, the binding result in assay [3] and in assay [4] was “binds” throughout.
